The source of these data is article PMC6166740.

These are yes or no findings as the source states them, for the method shown. Binding seen in cells or lysates may run through a third protein. Some results given as binding are weak or reduced against the parent protein; the word gives no strength. Sequences can lack the tags named with a protein.

The target in one assay is T1, FLAG-tagged ANKS6 (UniProt Q68DC2).
T1 sequence: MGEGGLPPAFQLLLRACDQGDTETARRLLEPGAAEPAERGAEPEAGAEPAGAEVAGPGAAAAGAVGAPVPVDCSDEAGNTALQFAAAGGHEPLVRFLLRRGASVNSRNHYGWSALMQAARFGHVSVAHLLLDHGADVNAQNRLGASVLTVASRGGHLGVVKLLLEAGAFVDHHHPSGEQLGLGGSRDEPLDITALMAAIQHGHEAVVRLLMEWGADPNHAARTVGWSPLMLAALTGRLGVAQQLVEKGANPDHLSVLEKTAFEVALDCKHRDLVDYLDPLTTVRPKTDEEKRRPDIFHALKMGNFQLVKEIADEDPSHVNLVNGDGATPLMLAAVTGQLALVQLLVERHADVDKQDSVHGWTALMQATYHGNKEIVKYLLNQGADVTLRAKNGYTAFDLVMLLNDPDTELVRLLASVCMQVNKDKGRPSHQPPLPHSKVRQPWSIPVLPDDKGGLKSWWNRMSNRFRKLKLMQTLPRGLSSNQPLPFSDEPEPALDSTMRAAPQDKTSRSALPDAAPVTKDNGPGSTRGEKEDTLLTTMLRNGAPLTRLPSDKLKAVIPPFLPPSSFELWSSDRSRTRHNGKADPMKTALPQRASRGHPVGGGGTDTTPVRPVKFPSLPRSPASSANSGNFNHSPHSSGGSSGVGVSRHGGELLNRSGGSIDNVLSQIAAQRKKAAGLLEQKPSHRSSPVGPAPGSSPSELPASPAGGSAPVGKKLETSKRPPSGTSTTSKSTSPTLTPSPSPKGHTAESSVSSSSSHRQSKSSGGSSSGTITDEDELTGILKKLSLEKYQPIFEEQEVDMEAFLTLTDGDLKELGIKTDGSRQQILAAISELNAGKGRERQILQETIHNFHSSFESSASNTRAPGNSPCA
The assay can be described thus: co-IP; FLAG-tagged and V5-tagged proteins coexpressed in HEK293T cells (calcium phosphate, 24 h); lysis in 1% Triton X-100, 20 mM Tris pH 7.5, 50 mM NaCl, 50 mM NaF, 15 mM Na4P2O7, 0.1 mM EDTA; anti-FLAG M2 agarose beads 2 h; Western blot with anti-V5 and anti-FLAG.

The next assay has as its target T2, FLAG-tagged NPHP1 (UniProt O15259).
T2 sequence: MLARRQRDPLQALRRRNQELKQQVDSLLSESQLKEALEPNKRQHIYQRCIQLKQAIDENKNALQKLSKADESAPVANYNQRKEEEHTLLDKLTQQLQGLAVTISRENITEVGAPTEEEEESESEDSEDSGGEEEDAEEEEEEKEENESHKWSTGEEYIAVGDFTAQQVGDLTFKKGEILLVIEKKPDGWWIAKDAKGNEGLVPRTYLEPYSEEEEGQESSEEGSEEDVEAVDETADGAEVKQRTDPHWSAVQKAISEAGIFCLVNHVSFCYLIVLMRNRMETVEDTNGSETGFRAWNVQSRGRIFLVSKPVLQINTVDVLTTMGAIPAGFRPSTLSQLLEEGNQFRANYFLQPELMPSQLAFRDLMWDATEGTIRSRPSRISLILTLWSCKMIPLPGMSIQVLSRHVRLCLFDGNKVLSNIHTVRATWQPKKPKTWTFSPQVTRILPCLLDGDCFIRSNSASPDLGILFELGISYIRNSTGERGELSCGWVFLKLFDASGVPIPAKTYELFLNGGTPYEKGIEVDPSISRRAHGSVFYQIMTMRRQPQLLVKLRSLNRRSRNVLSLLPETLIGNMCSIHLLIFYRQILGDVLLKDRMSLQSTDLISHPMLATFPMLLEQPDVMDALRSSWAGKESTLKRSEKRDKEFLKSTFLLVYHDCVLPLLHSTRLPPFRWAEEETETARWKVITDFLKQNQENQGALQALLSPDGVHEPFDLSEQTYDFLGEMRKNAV
Described as above.

B1: V5-tagged NME3 (enzyme, UniProt Q13232 1-169)
chain: MICLVLTIFANLFPAACTGAHERTFLAVKPDGVQRRLVGEIVRRFERKGFKLVALKLVQASEELLREHYAELRERPFYGRLVKYMASGPVVAMVWQGLDVVRTSRALIGATNPADAPPGTIRGDFCIEVGKNLIHGSDSVESARREIALWFRADELLCWEDSAGHWLYE
Regarding B1, the binding entry with FLAG-tagged ANKS6 and in the assay with FLAG-tagged NPHP1 was “binds” in each case.
